# Experimental data reported in PubChem BioAssay AID504444 (National Center for Advancing Translational Sciences (NCATS), 2011).
# The whole screen tested about 360,000 compounds, of which about 7,500 (2.1%) were called active. Inconclusive means that the source gave no clear call. Such entries were picked first, then a sample of the others. Calls come from the whole dose curve; as a rule, active = well fitted inhibition curve with a large enough effect; inconclusive = small, poorly fitted or top-dose-only effect, or effect the other way; inactive = flat fitted curve, though single readings scatter. A potency beside an inconclusive call is a rough fit, not a confirmed value.
# Assay: Nrf2 qHTS screen for inhibitors; note: nearly all actives have a fitted effect of over 60% in size
# Details: A549 ARE-Fluc reporter, luciferase luminescence, 18-24 h; series mostly up to 46 µM
# Method in brief: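 Two sequential reads on A549 ARE_Fluc cells exposed to compound for 18-24 h: a CellTiter-Fluor fluorescence read for viability, then a luciferase luminescence read for Nrf2/ARE activity.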
# Potency is the fitted concentration of half-maximal effect.
row,SMILES,Potency
1,Cc1cccc(C)c1-n1ncc(C(=O)NCc2ccc3c(c2)OCO3)c1C1CCN(C(=O)OC(C)(C)C)CC1,"inconclusive: 16.4 µM [activator, partial curve]"
2,FC(F)(F)c1cccc(NC(=S)Nc2ccc(Cl)cc2Cl)c1,"inconclusive: 9.2 µM [falling, single point]"
3,CC1=NN(c2ccc(Cl)cc2)C(=O)C1C(c1cccc(O)c1)c1c(C)[nH]n(-c2ccc(Cl)cc2)c1=O (stereo not given),"inconclusive: 18.4 µM [falling, single point]"
4,Cn1cc(/C=C2/SC(=O)N(c3ccccc3)C2=O)c2ccccc21,"inconclusive: 3.66 µM [activator, full curve]"
5,COc1ccc(/C=N\NS(=O)(=O)c2ccc(C)cc2)cc1COc1ccccc1[N+](=O)[O-],inactive
6,COc1ccc(NC(=O)C2CCCN(C(=O)Nc3cccc(OC)c3)C2)cc1 (stereo not given),"inconclusive: 6.51 µM [falling, full curve, poor fit]"
7,Cc1ccc(NC(=O)CSc2nc(-c3ccc(F)cc3)nc3c2Cc2c(CO)cnc(C)c2O3)cc1C,"inconclusive: 13 µM [activator, partial curve, poor fit]"
8,Cc1nn2c3c(cnc2c1-c1ccccc1)C(=O)CC(c1ccccc1)C3 (stereo not given),"inconclusive: 0.0052 µM [falling, full curve, poor fit]"
9,OC(c1ccccc1)(c1ccccc1)c1nccc2ccccc12,"inconclusive: 29.1 µM [falling, single point]"
10,Cc1cccc(NC(=O)Nc2ccc(Oc3c(F)c(F)c(F)c(F)c3F)cc2)c1,inactive
11,COc1ccc2c(c1)CCc1sc(NC(=O)c3ccc(Cl)cc3)nc1-2,"inconclusive: 20.6 µM [falling, partial curve, poor fit]"
12,CCOC(=O)N1CCN(c2c(N3CCN(c4cccc(C)c4C)CC3)c(=O)c2=O)CC1,inactive
13,COc1ccc(OCc2nnc3n2N=C(c2ccc(Br)cc2)CS3)cc1,inactive
14,CCOC(=O)N1CCN(C(=O)C2CCCN(S(=O)(=O)c3cc(C)ccc3OC)C2)CC1 (stereo not given),"inconclusive: 29.1 µM [falling, single point]"
15,COc1cccc(/C=C/C(=O)N2CC(C)OC(C)C2)c1OC (stereo not given),"inconclusive: 29.1 µM [activator, single point]"
16,Nc1nc(NCc2cccs2)nn1-c1ccccc1,"inconclusive: 16.4 µM [activator, partial curve]"
17,O=C(O)CCCN1C(=O)/C(=C\c2ccccc2OCc2ccccc2)SC1=S,"inconclusive: 0.0052 µM [falling, full curve, poor fit]"
18,C/C(=N/NC(=O)CN1CCN(S(=O)(=O)c2ccc(Br)cc2)CC1)c1cccnc1,"inconclusive: 13 µM [activator, partial curve]"
19,Cc1cc(C2=NNC(=NC3CC3)SC2)c(C)n1Cc1ccco1,"inconclusive: 2.31 µM [falling, partial curve, poor fit]"
20,CSc1ccc(CCNC(=O)c2cc(-c3ccccc3)c(N3CCOCC3)s2)cc1,"inconclusive: 29.1 µM [falling, single point]"

row,SMILES,Potency
1,CCOC(=O)N1CCN(C(=O)CCc2ccc(S(=O)(=O)NCCc3ccccc3)cc2)CC1,"inconclusive: 0.206 µM [falling, full curve, poor fit]"
2,Cc1ccc(NC(=O)CCc2c(C)nc3c(-c4ccccc4)c(C)nn3c2C)c(C)c1,"inconclusive: 16.4 µM [falling, partial curve]"
3,CCOc1ccccc1CNC(=O)c1ccc(NC(=O)C2=C(C)OCCS2)cc1,"inconclusive: 14.6 µM [falling, partial curve, poor fit]"
4,O=C1CN(c2nc(-c3cccs3)nc3sc4c(c23)CCCC4)CCN1,"inconclusive: 9.2 µM [activator, partial curve]"
5,CC1CCN(S(=O)(=O)c2cn(CC(=O)Nc3ccc(F)c(Cl)c3)c(=O)c3ccccc23)CC1,"inconclusive: 29.1 µM [falling, single point]"
6,Cc1cc(C(=O)CN2C(=O)NC3(CCCCC3)C2=O)c(C)n1Cc1ccco1,"inconclusive: 1.3 µM [activator, full curve]"
7,Ic1ccc(N2CCN(Cc3c[nH]c4ncccc34)CC2)cc1,"inconclusive: 29.1 µM [falling, single point]"
8,Cc1ccc(C(=O)c2c(C)oc3c2C(=O)C(=O)c2ccccc2-3)cc1,"inconclusive: 25.9 µM [falling, single point]"
9,CC12CCC=CC1C(c1ccc(Br)cc1F)N(Cc1ccccc1)C2=O (stereo not given),inactive
10,Nc1cc(S(=O)(=O)Nc2ccc(Cl)cc2)ccc1N1CCOCC1,active: 16.4 µM
11,COC(=O)c1ccc(NS(=O)(=O)c2cc3c4c(c2)CCN4C(=O)CC3)cc1,inactive
12,O=C(/C=C/c1ccc(N2CCCCC2)c([N+](=O)[O-])c1)c1ccc(O)cc1,"inconclusive: 29.1 µM [activator, single point]"
13,O=C(NC(=S)Nc1cccc2cccnc12)c1ccccc1,"inconclusive: 3.66 µM [activator, single point]"
14,c1coc(CCNc2ncnc3ccc(-c4ccc5c(c4)OCO5)cc23)c1,"inconclusive: 29.1 µM [activator, partial curve, poor fit]"
15,O=C(NCCc1ccc(F)cc1)Nc1ccccc1,"inconclusive: 23.1 µM [activator, single point]"
16,O=C(CCNC(=O)c1ccccc1Cl)Nc1ccc(Br)c(C(F)(F)F)c1,"inconclusive: 11.6 µM [falling, partial curve, poor fit]"
17,COc1ccc(NC(=O)Nc2ccc(OC)cc2)cc1,"inconclusive: 29.1 µM [activator, single point]"
18,CN(Cc1ccccc1)C(=O)c1cc(S(=O)(=O)N2CCOCC2)cn1C,"inconclusive: 4.61 µM [falling, partial curve, poor fit]"
19,CC1CCN(c2nc3ccc(C(=O)NCCCN4CCCCC4C)cc3s2)CC1 (stereo not given),"inconclusive: 0.411 µM [activator, full curve]"
20,COc1ccc(S(=O)(=O)N2CCC(C(=O)c3ccc4c(c3)OCCO4)CC2)cc1,"inconclusive: 23.1 µM [falling, partial curve, poor fit]"

# Reformatted: 2 of the compounds above.
row | SMILES | Potency
3 | CCOc1ccccc1CNC(=O)c1ccc(NC(=O)C2=C(C)OCCS2)cc1 | inconclusive: 14.6 µM [falling, partial curve, poor fit]
19 | CC1CCN(c2nc3ccc(C(=O)NCCCN4CCCCC4C)cc3s2)CC1 (stereo not given) | inconclusive: 0.411 µM [activator, full curve]
